According to doi:10.1101/2020.06.04.133710:
Results are given in words; binding and its absence hold for the method and conditions named. In cells and extracts the contact can be indirect. A yes stands for co-enrichment or nearness to the bait. Other partners may have been found. For some assays here: No binding means not detected with the bait. One block for each binder: values may come before it.

The chains behind the UniProt entries cited, without tags or fusion partners.
UniProt O43683: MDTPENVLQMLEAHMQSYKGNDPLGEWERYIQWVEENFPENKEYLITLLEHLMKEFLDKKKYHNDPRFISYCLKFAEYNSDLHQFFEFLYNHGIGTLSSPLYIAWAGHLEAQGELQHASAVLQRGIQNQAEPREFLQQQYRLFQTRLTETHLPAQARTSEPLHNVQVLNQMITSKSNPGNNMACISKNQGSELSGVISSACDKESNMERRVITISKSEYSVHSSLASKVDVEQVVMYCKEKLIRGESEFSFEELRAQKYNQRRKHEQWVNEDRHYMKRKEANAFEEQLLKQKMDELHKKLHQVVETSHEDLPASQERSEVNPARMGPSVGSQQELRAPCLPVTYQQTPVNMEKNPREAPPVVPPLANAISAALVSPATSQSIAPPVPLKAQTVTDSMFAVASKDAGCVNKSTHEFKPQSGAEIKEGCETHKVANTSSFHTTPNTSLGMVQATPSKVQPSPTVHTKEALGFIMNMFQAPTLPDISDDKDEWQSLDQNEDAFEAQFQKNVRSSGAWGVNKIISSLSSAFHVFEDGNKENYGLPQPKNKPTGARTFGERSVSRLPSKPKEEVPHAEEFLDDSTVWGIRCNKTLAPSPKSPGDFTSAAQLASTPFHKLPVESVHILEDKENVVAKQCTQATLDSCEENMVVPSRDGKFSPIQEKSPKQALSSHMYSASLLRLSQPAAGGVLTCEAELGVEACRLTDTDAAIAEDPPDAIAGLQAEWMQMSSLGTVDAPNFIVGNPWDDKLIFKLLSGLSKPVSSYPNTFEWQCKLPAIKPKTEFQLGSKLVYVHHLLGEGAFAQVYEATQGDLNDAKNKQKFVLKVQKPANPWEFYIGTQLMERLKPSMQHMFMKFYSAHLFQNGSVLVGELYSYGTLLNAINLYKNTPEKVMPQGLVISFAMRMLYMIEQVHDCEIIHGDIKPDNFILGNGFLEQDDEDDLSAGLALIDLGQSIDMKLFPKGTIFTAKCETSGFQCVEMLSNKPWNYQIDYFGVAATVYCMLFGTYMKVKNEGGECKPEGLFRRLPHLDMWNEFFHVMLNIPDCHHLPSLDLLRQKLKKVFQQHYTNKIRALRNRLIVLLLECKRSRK
UniProt O43684: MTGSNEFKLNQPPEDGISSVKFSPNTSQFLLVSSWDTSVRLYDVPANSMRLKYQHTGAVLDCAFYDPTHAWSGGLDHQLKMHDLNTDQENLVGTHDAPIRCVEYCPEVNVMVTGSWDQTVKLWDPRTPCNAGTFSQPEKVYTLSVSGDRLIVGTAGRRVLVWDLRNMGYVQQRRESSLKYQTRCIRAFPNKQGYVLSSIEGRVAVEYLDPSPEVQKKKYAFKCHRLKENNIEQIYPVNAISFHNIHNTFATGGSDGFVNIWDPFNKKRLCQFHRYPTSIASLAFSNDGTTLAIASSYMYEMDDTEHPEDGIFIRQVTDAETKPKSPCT
UniProt O60566: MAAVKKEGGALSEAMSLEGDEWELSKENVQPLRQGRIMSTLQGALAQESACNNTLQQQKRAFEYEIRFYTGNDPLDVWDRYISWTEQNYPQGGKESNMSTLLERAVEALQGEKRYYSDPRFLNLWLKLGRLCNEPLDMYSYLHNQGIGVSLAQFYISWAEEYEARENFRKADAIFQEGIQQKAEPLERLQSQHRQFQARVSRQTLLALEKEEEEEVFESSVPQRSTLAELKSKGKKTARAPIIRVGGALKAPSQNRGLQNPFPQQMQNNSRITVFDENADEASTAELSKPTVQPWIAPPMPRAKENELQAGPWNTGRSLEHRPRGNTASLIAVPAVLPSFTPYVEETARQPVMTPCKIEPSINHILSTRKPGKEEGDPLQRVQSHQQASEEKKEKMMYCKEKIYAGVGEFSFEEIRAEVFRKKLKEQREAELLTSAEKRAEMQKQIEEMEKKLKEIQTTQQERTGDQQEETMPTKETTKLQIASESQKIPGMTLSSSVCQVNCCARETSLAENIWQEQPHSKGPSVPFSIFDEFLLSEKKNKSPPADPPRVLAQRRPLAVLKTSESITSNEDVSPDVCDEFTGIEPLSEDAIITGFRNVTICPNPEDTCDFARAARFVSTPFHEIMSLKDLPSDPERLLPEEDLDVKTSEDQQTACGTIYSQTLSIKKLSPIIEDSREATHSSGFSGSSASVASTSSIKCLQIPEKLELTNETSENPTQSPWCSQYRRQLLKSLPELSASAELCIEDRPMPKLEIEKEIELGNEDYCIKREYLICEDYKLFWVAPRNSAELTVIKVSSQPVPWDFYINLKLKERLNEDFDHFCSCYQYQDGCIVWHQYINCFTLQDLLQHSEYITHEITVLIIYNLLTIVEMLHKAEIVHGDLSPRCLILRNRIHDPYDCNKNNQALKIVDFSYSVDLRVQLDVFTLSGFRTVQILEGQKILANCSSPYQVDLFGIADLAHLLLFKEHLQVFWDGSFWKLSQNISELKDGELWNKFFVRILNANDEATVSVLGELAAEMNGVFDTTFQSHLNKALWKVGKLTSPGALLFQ
UniProt Q13257: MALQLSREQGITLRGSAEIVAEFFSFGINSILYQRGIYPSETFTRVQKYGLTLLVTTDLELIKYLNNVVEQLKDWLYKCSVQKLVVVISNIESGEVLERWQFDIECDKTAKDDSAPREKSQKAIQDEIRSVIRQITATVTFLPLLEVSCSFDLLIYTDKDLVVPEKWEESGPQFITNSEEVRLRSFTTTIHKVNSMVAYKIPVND

Columns and labels:
Assay in all cases: proximity labelling
BUB1 (human) = BUB1 (human) (UniProt O43683)
BUB3 (human) = BUB3 (human) (UniProt O43684)
BUBR1 (human) = BUBR1 (human) (UniProt O60566)
MAD1L1 (human) = biological target: T1, MAD1L1 (human) (UniProt Q9Y6D9)
T1 sequence: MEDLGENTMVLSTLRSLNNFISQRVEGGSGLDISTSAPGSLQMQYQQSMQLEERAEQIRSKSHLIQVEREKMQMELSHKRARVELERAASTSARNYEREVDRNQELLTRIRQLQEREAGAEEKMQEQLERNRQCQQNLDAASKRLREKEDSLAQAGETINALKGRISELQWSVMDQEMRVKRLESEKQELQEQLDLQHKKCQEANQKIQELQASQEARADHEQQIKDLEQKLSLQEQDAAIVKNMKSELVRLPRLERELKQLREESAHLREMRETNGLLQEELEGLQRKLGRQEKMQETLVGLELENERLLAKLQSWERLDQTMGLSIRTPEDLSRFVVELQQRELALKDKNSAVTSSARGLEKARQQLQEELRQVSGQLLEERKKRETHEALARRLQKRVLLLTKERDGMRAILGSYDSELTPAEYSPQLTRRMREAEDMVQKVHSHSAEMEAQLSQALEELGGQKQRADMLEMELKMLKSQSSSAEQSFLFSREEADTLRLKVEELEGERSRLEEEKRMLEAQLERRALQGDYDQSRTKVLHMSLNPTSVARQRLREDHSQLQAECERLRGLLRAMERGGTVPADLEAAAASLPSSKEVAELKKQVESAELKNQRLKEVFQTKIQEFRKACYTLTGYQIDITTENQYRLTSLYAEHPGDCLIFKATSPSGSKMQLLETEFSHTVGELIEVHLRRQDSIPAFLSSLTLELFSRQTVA

MAD2L1 (human) = MAD2L1 (human) (UniProt Q13257)
MAD1L1 (human), Q9Y6D9 = biological target: T2, MAD1L1 (human), Q9Y6D9; conditions: remark: other sources report otherwise
T2 chain: T1 sequence

binding (BUB1 (human)): no binding
binding (BUB3 (human)): no binding
binding (BUBR1 (human)): no binding
binding (MAD1L1 (human)): binds
binding (MAD2L1 (human)): binds
B1: NUP50 (protein, UniProt Q9UKX7 1-468)
chain: MAKRNAEKELTDRNWDQEDEAEEVGTFSMASEEVLKNRAIKKAKRRNVGFESDTGGAFKGFKGLVVPSGGGRFSGFGSGAGGKPLEGLSNGNNITSAPPFASAKAAADPKVAFGSLAANGPTTLVDKVSNPKTNGDSQQPSSSGLASSKACVGNAYHKQLAALNCSVRDWIVKHVNTNPLCDLTPIFKDYEKYLANIEQQHGNSGRNSESESNKVAAETQSPSLFGSTKLQQESTFLFHGNKTEDTPDKKMEVASEKKTDPSSLGATSASFNFGKKVDSSVLGSLSSVPLTGFSFSPGNSSLFGKDTTQSKPVSSPFPTKPLEGQAEGDSGECKGGDEEENDEPPKVVVTEVKEEDAFYSKKCKLFYKKDNEFKEKGIGTLHLKPTANQKTQLLVRADTNLGNILLNVLIPPNMPCTRTGKNNVLIVCVPNPPIDEKNATMPVTMLIRVKTSEDADELHKILLEKKDA

binding (MAD1L1 (human), Q9Y6D9): binds
B2: NUP107, P57740 1-925 (protein)
chain: MDRSGFGEISSPVIREAEVTRTARKQSAQKRVLLQASQDENFGNTTPRNQVIPRTPSSFRQPFTPTSRSLLRQPDISCILGTGGKSPRLTQSSGFFGNLSMVTNLDDSNWAAAFSSQRSGLFTNTEPHSITEDVTISAVMLREDDPGEAASMSMFSDFLQSFLKHSSSTVFDLVEEYENICGSQVNILSKIVSRATPGLQKFSKTASMLWLLQQEMVTWRLLASLYRDRIQSALEEESVFAVTAVNASEKTVVEALFQRDSLVRQSQLVVDWLESIAKDEIGEFSDNIEFYAKSVYWENTLHTLKQRQLTSYVGSVRPLVTELDPDAPIRQKMPLDDLDREDEVRLLKYLFTLIRAGMTEEAQRLCKRCGQAWRAATLEGWKLYHDPNVNGGTELEPVEGNPYRRIWKISCWRMAEDELFNRYERAIYAALSGNLKQLLPVCDTWEDTVWAYFRVMVDSLVEQEIQTSVATLDETEELPREYLGANWTLEKVFEELQATDKKRVLEENQEHYHIVQKFLILGDIDGLMDEFSKWLSKSRNNLPGHLLRFMTHLILFFRTLGLQTKEEVSIEVLKTYIQLLIREKHTNLIAFYTCHLPQDLAVAQYALFLESVTEFEQRHHCLELAKEADLDVATITKTVVENIRKKDNGEFSHHDLAPALDTGTTEEDRLKIDVIDWLVFDPAQRAEALKQGNAIMRKFLASKKHEAAKEVFVKIPQDSIAEIYNQCEEQGMESPLPAEDDNAIREHLCIRAYLEAHETFNEWFKHMNSVPQKPALIPQPTFTEKVAHEHKEKKYEMDFGIWKGHLDALTADVKEKMYNVLLFVDGGWMVDVREDAKEDHERTHQMVLLRKLCLPMLCFLLHTILHSTGQYQECLQLADMVSSERHKLYLVFSKEELRKLLQKLRESSLMLLDQGLDPLGYEIQL

binding (BUB1 (human)): binds
binding (BUB3 (human)): binds
binding (BUBR1 (human)): binds
binding (MAD1L1 (human)): binds
binding (MAD2L1 (human)): binds
B3: SGO2 (protein, UniProt Q562F6 1-1265)
chain: MECPVMETGSLFTSGIKRHLKDKRISKTTKLNVSLASKIKTKILNNSSIFKISLKHNNRALAQALSREKENSRRITTEKMLLQKEVEKLNFENTFLRLKLNNLNKKLIDIEALMNNNLITAIEMSSLSEFHQSSFLLSASKKKRISKQCKLMRLPFARVPLTSNDDEDEDKEKMQCDNNIKSKTLPDIPSSGSTTQPLSTQDNSEVLFLKENNQNVYGLDDSEHISSIVDVPPRESHSHSDQSSKTSLMSEMRNAQSIGRRWEKPSPSNVTERKKRGSSWESNNLSADTPCATVLDKQHISSPELNCNNEINGHTNETNTEMQRNKQDLPGLSSESAREPNAECMNQIEDNDDFQLQKTVYDADMDLTASEVSKIVTVSTGIKKKSNKKTNEHGMKTFRKVKDSSSEKKRERSKRQFKNSSDVDIGEKIENRTERSDVLDGKRGAEDPGFIFNNEQLAQMNEQLAQVNELKKMTLQTGFEQGDRENVLCNKKEKRITNEQEETYSLSQSSGKFHQESKFDKGQNSLTCNKSKASRQTFVIHKLEKDNLLPNQKDKVTIYENLDVTNEFHTANLSTKDNGNLCDYGTHNILDLKKYVTDIQPSEQNESNINKLRKKVNRKTEIISGMNHMYEDNDKDVVHGLKKGNFFFKTQEDKEPISENIEVSKELQIPALSTRDNENQCDYRTQNVLGLQKQITNMYPVQQNESKVNKKLRQKVNRKTEIISEVNHLDNDKSIEYTVKSHSLFLTQKDKEIIPGNLEDPSEFETPALSTKDSGNLYDSEIQNVLGVKHGHDMQPACQNDSKIGKKPRLNVCQKSEIIPETNQIYENDNKGVHDLEKDNFFSLTPKDKETISENLQVTNEFQTVDLLIKDNGNLCDYDTQNILELKKYVTDRKSAEQNESKINKLRNKVNWKTEIISEMNQIYEDNDKDAHVQESYTKDLDFKVNKSKQKLECQDIINKHYMEVNSNEKESCDQILDSYKVVKKRKKESSCKAKNILTKAKNKLASQLTESSQTSISLESDLKHITSEADSDPGNPVELCKTQKQSTTTLNKKDLPFVEEIKEGECQVKKVNKMTSKSKKRKTSIDPSPESHEVMERILDSVQGKSTVSEQADKENNLENEKMVKNKPDFYTKAFRSLSEIHSPNIQDSSFDSVREGLVPLSVSSGKNVIIKENFALECSPAFQVSDDEHEKMNKMKFKVNRRTQKSGIGDRPLQDLSNTSFVSNNTAESENKSEDLSSERTSRRRRCTPFYFKEPSLRDKMRR
